Source: PubChem BioAssay AID686943 (Drosophila RNAi Screening Center, 2013)

Test: 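Search across the genome for regulators of signalling from receptor tyrosine kinase to ERK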 (primary screen)
Cell system: Drosophila S2R+ haemocyte-like cells expressing YFP-tagged ERK (Rolled)
Reagent: long dsRNA against Drosophila genes
Challenge: insulin stimulation versus unstimulated cells; dose and duration not given
Measurement: 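Per-plate z-scores of phospho-ERK immunostaining normalised to YFP-tagged ERK, measured with and without insulin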
Scale: replicate 1, z-score of dpERK with insulin and replicate 2, z-score of dpERK with insulin: higher = more active ERK per ERK-YFP after insulin; replicate 1, z-score of dpERK under basal conditions: higher = more basal active ERK per ERK-YFP; replicate 1, z-score of ERK-YFP with insulin: higher = more YFP-tagged ERK signal
The deposit covers about 23,000 reagents; this is a random part of those with a known target gene and a result. 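Extra replicates exist only for a retested subset of genes; insulin dose and duration not given; both raised and lowered dpERK matter.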 A plus sign joins genes that one reagent is predicted to hit. No sequences are given here. Not given: the amount of reagent, the time to read-out.

target gene | amplicon | replicate 1, z-score of dpERK with insulin | replicate 2, z-score of dpERK with insulin | replicate 1, z-score of dpERK under basal conditions | replicate 1, z-score of ERK-YFP with insulin
Src42A | DRSC04865 | 0.6 | 0.71 | -0.08 | -0.09
Src42A | DRSC04915 | -4.88 | -3 | -0.48 | 1.64
CG13538 | DRSC04180 | -0.05 | 0.76 | 2.17 | 0.52
CG32708 | DRSC18411 | 0.59 | 0.03 | 0.4 | 0.49
botv | DRSC05949 | 0.24 | 0.01 | 1.64 | 0.17
mthl6 | DRSC10234 | -0.06 | -0.44 | – | 0.21
Hnf4 | DRSC01032 | 0.92 | 0.13 | -0.19 | 0.17
Hnf4 | DRSC03344 | -0.98 | -0.32 | -1.32 | 0.07
CG32181 | DRSC22635 | 0.63 | 1.08 | -0.4 | 0.16
lin-28 | DRSC10261 | -1.08 | -1.2 | -1.02 | -0.35
CG13005 | DRSC19524 | -0.33 | -0.24 | 0.47 | -0.24
Flo1 | DRSC07427 | -0.39 | 0.03 | -0.73 | 0.05
babo | DRSC07581 | 0.07 | 0.72 | 0.47 | -0.02
Dnaaf3 | DRSC06684 | 0 | 0.25 | 0.26 | 0.34
Jon65Aiii | DRSC10649 | -0.06 | 0.48 | -0.31 | 0.51
CG11368 | DRSC17778 | -0.01 | 0.55 | 0.01 | -0.7
Ndf | DRSC02775 | -1.13 | -0.66 | -0.24 | 0.81
CR32745 | DRSC17442 | 0.02 | 0 | 0.16 | 0.04
CG9919 | DRSC20219 | 0.28 | 0.56 | -1.4 | 0.09
Rab9Db + Rab9D + Rab9E | DRSC17656 | -0.62 | -0.27 | 0.37 | 0.36
PMCA | DRSC17113 | 0 | 0.13 | -1.16 | 0.28
PMCA | DRSC17114 | 0.62 | 0.26 | -0.96 | -1.94
PMCA | DRSC17154 | -0.95 | 0.12 | 1.39 | -0.22
CG4009 | DRSC15536 | -0.3 | 0.47 | 0.98 | 0.4
Targ | DRSC06206 | -0.9 | -0.63 | 0.03 | 0.15
fd3F + CR42499 | DRSC18160 | -0.24 | -0.09 | -0.88 | 0.68
fd3F + CR42499 | DRSC18161 | 0.22 | 0.22 | -0.5 | 1.19
CG14362 | DRSC14824 | 0.19 | 0 | 0.21 | -0.08
Qtzl | DRSC01221 | 0.46 | 1.04 | -0.23 | -0.22
CG34342 | DRSC09756 | 0.55 | 0.42 | 0.11 | 0.08
CG34342 | DRSC22515 | 0.62 | 0.04 | 1.57 | -0.58
Cyp309a2 | DRSC00526 | 0.02 | 0.55 | 2.03 | -0.28
CG31805 | DRSC01563 | 1 | -0.18 | 0.16 | 0.1
CG17097 | DRSC02569 | 0.11 | 0.67 | -0.44 | -0.49
dyw | DRSC18228 | -0.41 | 2.17 | 1.35 | 0.46
Dph5 | DRSC16653 | -0.02 | 0.12 | -0.27 | -0.09
CG34124 | DRSC00849 | 0.43 | 0.3 | 0.53 | -0.01
pan | DRSC17176 | 1.01 | -0.08 | -0.36 | -0.32
pan | DRSC22582 | 0.49 | 0.44 | 0.24 | 0.27
Spn | DRSC07986 | 0.86 | 0.02 | 0.18 | 0.12
Spn | DRSC08490 | 0.87 | -0.24 | -0.27 | 0.46
Spn | DRSC08491 | 0.36 | 1.65 | -0.03 | 0.57
Ubc6 | DRSC12370 | -0.5 | -1.78 | -2.61 | 6.39
CG11458 | DRSC11666 | 1.44 | 1.58 | 0.25 | 0.47
CycG | DRSC14324 | -1.66 | -1.39 | 2.59 | -0.64
CG31870 | DRSC21681 | 0.23 | 0.36 | 0.21 | 0.32
Neurochondrin | DRSC12580 | 1.14 | -0.24 | -0.09 | 0.27
RpS10a | DRSC14161 | 0.43 | 0.99 | -0.87 | 0.52
miple2 | DRSC08723 | 0.05 | 0.02 | -0.43 | 0.99
Tmhs | DRSC08231 | 0.67 | 0.91 | -0.01 | -0.05
JMJD4 | DRSC03025 | 0.27 | -0.1 | -1.16 | 0.05
PGS1 | DRSC16304 | 0.75 | 0 | 0.26 | -0.09
CSN1a | DRSC01951 | 1.59 | 0.3 | 1.93 | -0.38
oxt | DRSC08522 | -0.12 | 0.43 | -0.41 | 0.04
Srp19 | DRSC11288 | 1.48 | 1.08 | 0.11 | -0.05
Shark | DRSC07680 | 0.47 | 0.19 | -0.68 | 0
Gasp | DRSC12349 | -0.72 | -1.19 | 2.1 | 0.06
Ide | DRSC11867 | -0.01 | -0.39 | 0.57 | 0.25
CG5853 | DRSC01103 | -0.36 | -0.21 | 0.51 | 0.76
CG5853 | DRSC02906 | 0.25 | 0.37 | 0.02 | 0.63
Nt5b | DRSC19976 | -0.57 | 0.04 | -1.05 | -0.02
Nt5b | DRSC19977 | 0.33 | 0.77 | 0.06 | 0.23
Nt5b | DRSC19978 | -0.28 | -0.15 | 0.88 | 0.6
Nt5b | DRSC22588 | 0.33 | 0.16 | 0.05 | -1.45
CG34161 | DRSC01132 | 0 | 0.3 | 0.11 | 0.74
CG43740 | DRSC17848 | -1.31 | -0.41 | -1.16 | -0.55
CG43740 | DRSC17994 | 0.61 | 0.33 | 0.56 | -0.27
CG43110 | DRSC05661 | 0.28 | -0.14 | -0.47 | -0.21
Tbcb | DRSC06067 | -0.83 | 0.44 | 0.48 | 0.53
CG34011 | DRSC00888 | -0.72 | -0.78 | -0.51 | 0.23
Rab11 | DRSC16809 | -1.3 | -1.71 | 0.31 | 0.63
p-cup | DRSC19513 | 0.49 | 0.36 | -0.02 | -0.03
pen-2 | DRSC05722 | 0.27 | 0.13 | -0.28 | 0.66
